The whole screen tested about 320,000 compounds, of which about 22,000 (6.9%) were called active. This list was built around the results that the source calls inconclusive (neither active nor inactive); the mix of calls is not that of the screen. Calls follow the shape of the dose curve; as a rule, active = well fitted inhibition curve with a large enough effect; inconclusive = small, poorly fitted or top-dose-only effect, or another doubt; inactive = no such curve, though single readings can be large or run the other way. Where the call is inconclusive, the potency comes from a doubtful curve fit. Where a SMILES comes first, the peptide text is derived from it. [ ]: non-standard residue; d: D form. The star is where a group is joined. ξ: configuration not given here. Cbz = O=C(OCc1ccccc1)*; ξK = NCCCCC(N)C(=O)O
Assay: Primary qHTS for delayed death inhibitors of the malarial parasite plastid, 96 hour incubation
Settings: P. falciparum luciferase reporter growth; series mostly up to 28.7 µM; activity change, negative = inhibition: at the top concentration
In short: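 Two parasite generations (96 h, 37 C, 5% CO2) of compound exposure in infected erythrocytes (0.05% parasitemia, 2% hematocrit). Luciferase-reporter P. falciparum; decreased luminescence indicates inhibited growth, aimed at apicoplast-acting delayed death.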
% is scaled to controls: 0 for no effect and ±100 for the full control effect; potency is read from the fitted curve at half-maximal effect.

SMILES | activity change, negative = inhibition | Potency
CCN1CCN(C(=O)/C(=C/c2ccco2)NC(=O)c2ccccc2)CC1 | inactive: -7.42% | –
CCOC(=O)c1c(C)oc2c1c1c(c3ccccc32)OCN(Cc2cccnc2)C1 | – | inconclusive: 1.85 µM [inhibitor, partial curve, poor fit]
CCOC(=O)c1ccc(NC(=O)CSc2nc3c(c(=O)n2C)SC(C)C3)cc1 (stereo not given) | – | inconclusive: 6.57 µM [inhibitor, partial curve, poor fit]
COc1ccc(-c2nn(CCC#N)cc2C(=O)Nc2ccc(C(C)=O)cc2)cc1[N+](=O)[O-] | – | inconclusive: 18.5 µM [inhibitor, single point]
COc1cc(/C=N/n2c(-c3ccc4c(c3)NC(=O)CO4)csc2=Nc2cccc(C)c2)ccc1O | – | active: 4.65 µM
Cc1ccc(N(CC#N)C(=O)CS(=O)(=O)c2cccc([N+](=O)[O-])c2)cc1 | – | inconclusive: 5.86 µM [inhibitor, partial curve]
COc1cccc(NC(=S)NCc2ccccc2)c1 | inactive: 3.05% | –
COc1ccccc1C(=O)Nc1nnc(SCC(=O)Nc2ccc3c(c2)oc2ccccc23)s1 | – | inconclusive: 14.7 µM [inhibitor, partial curve, poor fit]
Cc1c(-c2ccc(O)cc2)nc2nc(-c3ccccc3)c(-c3ccccc3)nn12 | – | active: 2.08 µM
CCN1C(=O)C(=Cc2ccc(C)s2)C(=O)N(CC)C1=S | inactive: 108% | –
O=C(NCCN1CCOCC1)C(=O)NCC1OCCCN1S(=O)(=O)c1ccc(F)cc1 (stereo not given) | – | inconclusive: 2.94 µM [inhibitor, single point]
O=C(c1ccccc1)n1ccc(-c2cccs2)n1 | – | inconclusive: 0.0037 µM [inhibitor, full curve, poor fit]
CCN(CC)S(=O)(=O)c1ccc(N2CCOCC2)c(NC(=O)c2ccc(N3CCCC3=O)cc2)c1 | – | active: 14.7 µM
COC(=O)C(CCCCNC(=O)OCc1ccccc1)NC(=O)CN (stereo not given) (H-Gly-[ξK](Cbz)-OMe) | – | inconclusive: 20.8 µM [inhibitor, partial curve, poor fit]
O=C(NCCOc1nc(N2CCOCC2)nc(N2CCOCC2)n1)Nc1ccc(Cl)cc1 | – | inconclusive: 4.15 µM [inhibitor, partial curve, poor fit]
CCOC(=O)c1cn(CC)c2cc3c(cc2c1=O)OCO3 | – | inconclusive: 20.8 µM [inhibitor, partial curve, poor fit]
O=C(c1ccccc1)c1cc(Cl)ccc1N1C(=O)C=CC1=O | inactive: 24.1% | –
Cc1c(N2CCCC2)cc2c(c1NC(=O)c1ccccc1Cl)C(C)(C)CC2(C)C | – | inconclusive: 7.38 µM [inhibitor, partial curve, poor fit]
CC(=O)/C=C/c1ccccc1Oc1c(F)c(F)nc(F)c1F | – | active: 9.28 µM
Cc1cc(C)cc(COn2ccnc2)c1 | inactive: -0.191% | –
O=[N+]([O-])c1ccc2c(c1)C(N1CCOCC1)/C(=C/C1(O)CCCCC1)O2 (stereo not given) | – | active: 1.65 µM
O=C(c1ccco1)c1cn(CC(=O)N2CCCCC2)c2ccccc12 | – | active: 1.65 µM
Cc1nc(C)c(-c2csc(Nc3ccc(S(N)(=O)=O)cc3)n2)s1 | inactive: 26.5% | –

SMILES | activity change, negative = inhibition | Potency
O=C(NCc1ccc2c(c1)OCO2)C1CC(=O)N(CCc2ccc(F)cc2)C1 (stereo not given) | inactive: 0.305% | –
COC(=O)c1cn(-c2ccccc2)c(=O)c2ccccc12 | inactive: 9.93% | –
COc1ccccc1CCc1nnc(CCC(=O)NCCCOc2cccnc2)o1 | – | inconclusive: 11.7 µM [inhibitor, single point]
Cc1nc2c(C(=O)NCCc3ccccc3)c[nH]n2c(=O)c1Cl | – | inconclusive: 3.29 µM [inhibitor, partial curve, poor fit]
O=[N+]([O-])c1ccc2c(c1)C(N1CCOCC1)/C(=C/COc1ccc(Cl)cc1Cl)O2 (stereo not given) | – | inconclusive: 13.1 µM [inhibitor, single point]
Cc1ccc(C(=O)NCCC(=O)N2CCC3(CC2)NCCc2[nH]cnc23)cc1C | inactive: 4.26% | –
O=C(/C=C/c1cccs1)NC(=S)NNC(=O)Cc1cccs1 | inactive: -44.8% | –
CCCCN1C(=O)NC(NC(=O)c2ccco2)(C(F)(F)F)C1=O (stereo not given) | – | inconclusive: 20.8 µM [inhibitor, single point]
CCCC(C(=O)NC(C)(C)C)N(CC1CCCO1)C(=O)CNS(=O)(=O)c1ccc(F)cc1 (stereo not given) | inactive: -17.9% | –
CC1CCN(S(=O)(=O)c2ccc(S(=O)(=O)NCC(=O)C(C)(C)C)cc2)CC1 | – | inconclusive: 13.1 µM [inhibitor, partial curve, poor fit]
COc1cccc(OC)c1C(=O)O/N=C(\N)c1ccncc1 | – | active: 11.7 µM
COC(=O)C1=C(C)NC(=O)/C1=C\c1cc(C)n(-c2ccc(F)cc2)c1C | – | inconclusive: 0.0041 µM [inhibitor, full curve, poor fit]
CN(Cc1ccccc1)C(=O)c1ccc2c(c1)OCO2 | – | inconclusive: 9.28 µM [inhibitor, partial curve]
c1csc(-c2nc(CN3CCSCC3)cs2)c1 | inactive: 271% | –
CCN(CC)c1ccc(/C=C/c2nc3ccccc3s2)cc1 | inactive: 78% | –
CCN(CC1CCCO1)C(=O)c1cc(COc2ccc(OC)cc2Cl)on1 (stereo not given) | – | inconclusive: 9.28 µM [inhibitor, partial curve, poor fit]
O=c1cc(-c2cccnc2)oc2c1ccc1ccccc12 | – | inconclusive: 0.465 µM [inhibitor, full curve, poor fit]
Cc1ccc(C)c(CSC2=NN3CCCC(=O)N=C3S2)c1 | inactive: -22.8% | –
COc1ccccc1CNC(=O)C1CCCN(S(=O)(=O)c2cccc3cccnc23)C1 (stereo not given) | – | inconclusive: 18.5 µM [inhibitor, single point]
COc1ccc(OCCSc2nnc(CCNC(=O)c3ccc(OC)cc3)n2C)cc1 | – | inconclusive: 9.28 µM [inhibitor, partial curve]
CC(C)CCNC(=O)CCn1c(=S)oc2ccccc21 | – | inconclusive: 1.31 µM [inhibitor, partial curve, poor fit]
COc1cccc(CN2CC(C(=O)NC3CCCCCC3)CCC2=O)c1 (stereo not given) | – | inconclusive: 0.0005 µM [inhibitor]

2 records drawn at random from the list so far:
SMILES | activity change, negative = inhibition | Potency
CCN(CC)c1ccc(/C=C/c2nc3ccccc3s2)cc1 | inactive: 78% | –
Cc1ccc(C)c(CSC2=NN3CCCC(=O)N=C3S2)c1 | inactive: -22.8% | –
